Measured values as given in PMC7205312.
Positions count from the first letter of the chain named. Names may count otherwise. No constants are given. Whether binding was seen depends on the method and setting. In cells and extracts the contact can be indirect. Some entries that bind do so weakly or less than the wild type. Values belong to the binder of their own block, whether it stands above or below them.

Tests used:
[1] = target: Tm-2^2 (L246A) (tomato) (UniProt Q71BG9); assay: co-IP; Myc- and HA-tagged copies of full-length Tm-2^2 (or mutant) co-expressed WITH TMV MP-YFP (GenBank BAF93925.1) in N. benthamiana; leaves collected at 22-24 hpi; IP with anti-Myc beads, 3 h at 4°C, IP buffer 25 mM Tris-HCl pH 7.5, 150 mM NaCl, 1 mM EDTA, 10% glycerol, 10 mM DTT, 0.2-0.5% NP-40; blot anti-HA
[2] = target: Tm-2^2 (K191R) (tomato) (UniProt Q71BG9); assay: as above

binding [1]: binds
B1: Tm-2^2 (L246A) (receptor, UniProt Q71BG9 1-861)
chain: MAEILLTSVINKSVEIAGNLLIQEGKRLYWLKEDIDWLQREMRHIRSYVDNAKAKEAGGDSRVKNLLKDIQELAGDVEDLLDDFLPKIQQSNKFNYCLKRSSFADEFAMEIEKIKRRVVDIDRIRKTYNIIDTDNNNDDCVLLDRRRLFLHADETEIIGLDDDFNMLQAKLLNQDLHYGVVSIVGMPGLGKTTLAKKLYRLIRDQFECSGLVYVSQQPRASEILLDIAKQIGLTEQKMKENLEDNARSLLKIKRYVILLDDIWDVEIWDDLKLVLPECDSKVGSRMIITSRNSNVGRYIGGESSLHALQPLESEKSFELFTKKIFNFDDNNSWANASPDLVNIGRNIVGRCGGIPLAIVVTAGMLRARERTEHAWNRVLESMGHKVQDGCAKVLALSYNDLPIASRPCFLYFGLYPEDHEIRAFDLINMWIAEKFIVVNSGNRREAEDLAEDVLNDLVSRNLIQLAKRTYNGRISSCRIHDLLHSLCVDLAKESNFFHTAHDAFGDPGNVARLRRITFYSDNVMIEFFRSNPKLEKLRVLFCFAKDPSIFSHMAYFDFKLLHTLVVVMSQSFQAYVTIPSKFGNMTCLRYLRLEGNICGKLPNSIVKLTRLETIDIDRRSLIQPPSGVWESKHLRHLCYRDYGQACNSCFSISSFYPNIYSLHPNNLQTLMWIPDKFFEPRLLHRLINLRKLGILGVSNSTVKMLSIFSPVLKALEVLKLSFSSDPSEQIKLSSYPHIAKLHLNVNRTMALNSQSFPPNLIKLTLAYFSVDRYILAVLKTFPKLRKLKMFICKYNEEKMDLSGEANGYSFPQLEVLHIHSPNGLSEVTCTDDVSMPKLKKLLLTGFHCRISLSERLKKLSK

binding [2]: no binding
B2: Tm-2^2 (K191R) (receptor, UniProt Q71BG9 1-861)
chain: B1 chain with K191R, A246L
